# Percent effect of library compounds

Source: ChEMBL document CHEMBL3988442, “University of Dundee, Small-Polar-MMV Screening Library” (2021).

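Whole-parasite assay of Trypanosoma brucei over 72 hours; the read-out is not stated. Concentration: 30 µM. The record gives no direction; compounds that gave an IC50 in retests scored well above the rest, so higher reads as stronger inhibition. Values scatter widely below zero; nearly all retest evidence comes from the higher of the two concentrations used. Size under these conditions: about 64,000 compounds, about 940 of them at 50% or above in at least one test.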

The filed quantity is “Percent Effect” (%). How 0% and 100% were set is not recorded. Most values in the screen are low, and negative values occur. This is an unselected part of the compounds tested.

| # | Compound | Percent Effect |
|---|---|---|
| 1 | `CCN(C(=O)COC)C(c1cccnc1)c1cc(C)cc(C)c1` (stereo not given) | -32.94 |
| 2 | `Cc1cc(C(=O)N2CCCN(Cc3nccn3C(C)C)CC2)no1` | -4.707 |
| 3 | `CCc1ccc(C(=O)NCCCC2(C3OCCO3)CCOCC2)cc1` | -37.73 |
| 4 | `Cc1cc(CC(=O)N(C)Cc2cccc(OC(C)C)c2)n[nH]1` | -30.56 |
| 5 | `CC(Nc1cccc(CN2CCOC2=O)c1)C(=O)Nc1cccc(F)c1` (stereo not given) | 0.518 |
| 6 | `O=C(O)C(F)(F)F.[H][C@@]12CCN(CC3CCOCC3)C[C@@]1([H])O[C@H](c1nc(C)no1)C2` | -97.78 |
| 7 | `Cc1ccc(C(=O)NC2CCCN(CC(N)=O)C2)c(=O)[nH]1` (stereo not given) | 4.047 |
| 8 | `Cc1noc(C2CCC3(CCN(C(=O)c4ccn(C)n4)CC3)O2)n1` (stereo not given) | -40.58 |
| 9 | `COc1cccc(CN(C)C(=O)Nc2ccc3c(c2)OCCO3)c1` | 19.94 |
| 10 | `COc1cc(C)cc(-c2nc3c([nH]2)CCNC3)c1OC` | -15.28 |
| 11 | `CNc1cc(C)nc(N2C[C@H](C3CC3)[C@@H](N)C2)n1` | 85.5 |
| 12 | `CC(C)c1nc2n(n1)CC(NCc1nc(-c3ccccn3)no1)CC2` (stereo not given) | 23.99 |
| 13 | `CC(C)CN1Cc2nc(N3CCCC(C)C3)ncc2C1=O` (stereo not given) | -5.722 |
| 14 | `Cn1nc2c(cc1=O)CN(Cc1nc(N)c3ccccc3n1)CC2` | -50.34 |
| 15 | `O=c1[nH]c2ccccc2cc1CN(Cc1ccccn1)CC1CCCO1` (stereo not given) | -11.48 |
| 16 | `[H][C@]12CC[C@]([H])(CN(C3CCOCC3)C1)N(Cc1cnc(SCC)nc1)C2` | -104.7 |
| 17 | `COCC(=O)N1CCC(C(=O)Nc2ccc(S(N)(=O)=O)cc2)CC1` | -3.62 |
| 18 | `Cc1c(C(=O)N2CCC2)nnn1-c1ccc2ncccc2c1` | 7.229 |
| 19 | `N#CCCN(C(=O)CCc1cscn1)c1ccc2c(c1)OCCO2` | -69.28 |
| 20 | `COc1cccc(CNC(=O)CN2CCCCC2Cn2cccn2)c1` (stereo not given) | 6.887 |
| 21 | `CCOc1ncccc1CNS(=O)(=O)c1ccc2c(c1)CCCC(=O)N2` | 11.6 |
| 22 | `CCn1cc(C(=O)N(C)[C@@H]2CC[C@@H](N3CCCC3)[C@@H]2O)c(C)n1` | -26.73 |
| 23 | `CCc1nnc(Nc2cccc(C3CCN(C(=O)CN(C)C)CC3)n2)s1` | -14.87 |
| 24 | `CCN(CC)C(=O)Cn1ccc2cc(NC(=O)COC)ccc21` | 10.76 |
| 25 | `CCCN1C(=O)CC(N2CCN(c3ccc(F)cc3)CC2)C1=O` (stereo not given) | -24.79 |
| 26 | `CCc1cc(N[C@H]2CCC[C@H]2CO)n2nc(C)c(C)c2n1` | -24.24 |
| 27 | `CS(=O)(=O)NCCc1cccc2cccnc12` | -51.57 |
| 28 | `COC(=O)N1CCC(c2nnc(Cn3ccnc3)n2C)CC1` | -52.44 |
| 29 | `COCCN1CCC2(CC1)CC(N1CCOCC1)c1ccc(C)cc12.O=C(O)C(F)(F)F.O=C(O)C(F)(F)F` (stereo not given) | -17.73 |
| 30 | `CCN(CCO)C[C@@H]1CN(C(=O)c2ccc(C)s2)C[C@@H]1CO` | -21.67 |
| 31 | `Cn1cc(NC(=O)c2cccc3cccnc23)ccc1=O` | -21.12 |
| 32 | `COCCN1CCc2ncnc(OC(C)C)c2CC1.O=C(O)C(F)(F)F` | -83.4 |
| 33 | `O=C(c1ccc(N2CCCCCC2)nn1)N1CCc2ccccc21` | -2.553 |
| 34 | `CC(Cn1ccnc1)NC(=O)NCCc1ccccn1` (stereo not given) | 17.64 |
| 35 | `CCC(=O)NCC(Cc1cccc(F)c1)n1cccc1` (stereo not given) | 17.01 |
| 36 | `O=C(O)C(F)(F)F.[H][C@@]12CCN(Cc3ccc4c(c3)OCO4)C[C@]1(C(=O)NC)CCO2` | -39.27 |
| 37 | `Cc1ccc(-c2ncc(CN3CCN(C(=O)N(C)C)CC3)s2)o1` | 0.4929 |
| 38 | `CCc1ccc2ncn(Cc3ncc[nH]3)c(=O)c2c1` | -38.14 |
| 39 | `CCCS(=O)(=O)N1CCN(CCOC)c2nc(C)ccc2C1.O=C(O)C(F)(F)F` | -33.85 |
| 40 | `NC(=O)NC(=O)CCN1CCN(CC2CC2)c2ccccc21` | -11.47 |
| 41 | `O=C(CCCC(=O)NCc1cccc(Br)c1)NCCN1CCCC1` | -17.06 |
| 42 | `CC(c1ccc(F)cc1F)N1CCN(Cc2nccn2C)CC1` (stereo not given) | 3.028 |
| 43 | `Cc1cc(C)cc(N2CCN(Cc3cccnc3)CC2=O)c1` | 0.4924 |
| 44 | `Cc1cccc(CN2CCc3c(COCC(=O)N(C)C)nn(C)c3C2)n1.O=C(O)C(F)(F)F.O=C(O)C(F)(F)F` | -69.98 |
| 45 | `Clc1snnc1CN1CCCC(Cn2cncn2)C1` (stereo not given) | -32.21 |
| 46 | `CN1CCN2CCN(C(=O)c3cnn4cc(CCO)cnc34)CC2C1` (stereo not given) | -53.83 |
| 47 | `OC(CNCCc1nnc2ccccn12)c1ccc2c(c1)OCO2` (stereo not given) | -58.78 |
| 48 | `CO[C@H]1CN(C(=O)c2ccc(-c3ccccc3)[nH]2)CC[C@H]1N` | 21.81 |
| 49 | `CCn1cc(NC(=O)NCC(c2cccc(OC)c2)N(C)C)cn1` (stereo not given) | 8.44 |
| 50 | `CN(Cc1ccccc1)CC(C)(C)NC(=O)c1ccc(C(N)=O)cn1` | -8.442 |
| 51 | `c1ccc(C2CCCN2Cc2nnnn2C2CC2)cc1` (stereo not given) | -0.1322 |
| 52 | `CN1CCC(CNC(=O)CCSc2ccc3c(c2)OCCO3)C1` (stereo not given) | -7.927 |
| 53 | `Cn1cc(C#N)cc1C(=O)NC1(C#N)CCSCC1` | -23.25 |
| 54 | `Cc1ccc(C(=O)NC2CCN(CC(=O)N(C)c3ccccc3)CC2)o1` | 16.49 |
| 55 | `Cc1nc(CN2CCC(CNC(=O)C3CCOC3)CC2)oc1C` (stereo not given) | -0.632 |
| 56 | `CCn1cnnc1C1CCN(C(=O)c2ccccc2OC)CC1` | 11.12 |
| 57 | `CN(C)CCOCc1cncc2c1CCN(C1CCOCC1)C2.O=C(O)C(F)(F)F.O=C(O)C(F)(F)F.O=C(O)C(F)(F)F` | -62.48 |
| 58 | `CC(C)c1cc(C2CCN(Cc3cc(F)cc(F)c3)CC2)[nH]n1` | -20.27 |
| 59 | `O=C(O)C(F)(F)F.O=C1NCC[C@]12CN(Cc1nccs1)C[C@H]2c1ccccc1` | -2.533 |
| 60 | `c1cc(C[C@H]2[C@H](N3CCOCC3)CCN2Cc2ccoc2)ccn1` | -2.723 |
| 61 | `[H][C@@]12CN(Cc3ccoc3)CCO[C@]1([H])CN(C(=O)C1CC(F)(F)C1)C2` | -1.04 |
| 62 | `CS(=O)(=O)Cc1cccc(C(=O)N2CCCC(n3cccn3)C2)c1` (stereo not given) | 4.153 |
| 63 | `CC(C)NC(=O)c1cc2c(c3ccccc3n2C)n1C(=O)N(C)C` | 61.67 |

Repeated from the top, 3 entries:

Compound	Percent Effect
CCN(C(=O)COC)C(c1cccnc1)c1cc(C)cc(C)c1 (stereo not given)	-32.94
Cc1cc(C(=O)N2CCCN(Cc3nccn3C(C)C)CC2)no1	-4.707
CCc1ccc(C(=O)NCCCC2(C3OCCO3)CCOCC2)cc1	-37.73